Results as given in PMC10018501 (ACS Omega, 2023).

Experiments:
[1] = system: hippocampal brain (dentate gyrus) neurons; assay: Brain tissue histopathology; format: in vivo, rat; details: Aβ1–42 rats, SD-6 10 mg/kg, donepezil 5 mg/kg
[2] = system: malonaldehyde (MDA); assay: Ex vivo MDA estimation; format: in vivo, rat; details: scopolamine-treated rats; SD-6 2.5, 5, 10 mg/kg; donepezil 5 mg/kg
[3] = system: glutathione (GSH); assay: Ex vivo reduced glutathione; format: in vivo, rat; details: scopolamine-treated rats; SD-6 2.5, 5, 10 mg/kg; donepezil 5 mg/kg
[4] = system: catalase; assay: Ex vivo catalase assay; format: in vivo, rat; details: scopolamine-treated rats; SD-6 2.5, 5, 10 mg/kg; donepezil 5 mg/kg
[5] = system: nondifferentiated SH-SY5Y cells; assay: Neuroprotective estimation; format: cell-based; details: Homo sapiens, 24 h, read-out: cell viability
[6] = in vitro; details: PAMPA, pH 7.4
[7] = system: superoxide dismutase (SOD); assay: Ex vivo SOD assay; format: in vivo, rat; details: scopolamine-treated rats; SD-6 2.5, 5, 10 mg/kg; donepezil 5 mg/kg

COc1cc2c(cc1OC)C(=O)C(CC1CCN(Cc3ccccc3)CC1)C2 (stereo not shown) [donepezil, reference compound]
neuronal morphology (dentate gyrus) [1]: less disordered neuronal arrangement and vacuolar fibrosis
neuronal density (dentate gyrus) ([1]; vs Aβ1–42-treated group): higher
MDA level [2]: significantly different
GSH level [3]: statistically significant
catalase activity [4]: statistically significant
viability at 5 µM [5]: 57.9%
viability at 10 µM [5]: 70.8%
viability at 20 µM [5]: 81.3%
Papp at 18 h, 25 μg/mL [6]: 5.264 ± 0.022 ×10⁻⁶ cm/s
SOD level [7]: significantly different
